Assay results taken from PubChem BioAssay (NCATS).
The shares of active, inactive and inconclusive entries below differ from those in the screen. Potencies beside an inconclusive call are fits to weak or partial responses and may not hold up. Active and inactive are the calls of the source. The call rests on the fitted dose curve; in most records, active means well fitted cell-killing curve with a large enough effect; inconclusive means small, poorly fitted or top-dose-only effect, or effect the other way; inactive means no such curve, though single readings can be large or run the other way.

assay: Quantitative High-Throughput drug screen in 47 multiple myeloma cell lines against the NCATS MIPE library collection: H1112_PLB cell viability assay (AID 1918967; further: nearly all actives have a fitted effect of over 30% in size); details: H1112 myeloma cells viability, ATP luminescence, 48 h; series mostly up to 45.8 µM
Excerpt: PI: Beverly A. Mock Ph.D.
Laboratory of Cancer Biology and Genetics,
Center for Cancer Research, National Cancer Institute,
National Institute of Health, Bethesda, Maryland
Drug resistance and disease progression are common in multiple myeloma (MM) patients, underscoring the need for new therapeutic combinations. […] We hypothesized that effective combinations would reduce MYC expression and enhance p16 activity. […] These preclinical data identify potentially useful drug combinations for evaluation in drug-resistant MM and reveal potential mechanisms of combined drug sensitivity.
Described herein is the primary MIPE qHTS used to cherrypick compounds. Validated compounds were then further tested for potential synergistic activiy.
[1] Peat TJ, Gaikwad SM, Dubois W, Gyabaah-Kessie N, Zhang S, Gorjifard S, Phyo Z, Andres M, Hughitt VK, Simpson RM, Miller MA, Girvin AT, Taylor A, Williams D, D'Antonio N, Zhang Y, Rajagopalan A, Flietner E, Wilson K, Zhang X, Shinn P, Klumpp-Thomas C, McKnight C, Itkin Z, Chen L, Kazandijian D, Zhang J, Michalowski AM, Simmons JK, Keats J, Thomas CJ, Mock BA. Drug combinations identified by high-throughput screening promote cell cycle transition and upregulate Smad pathways in myeloma. Cancer Lett. 2023 Aug 1;568:216284. doi: 10.1016/j.canlet.2023.216284. Epub 2023 Jun 24. PMID: 37356470; PMCID: PMC10408729.
SEQUENCE No. (e.g., 1, 2, 3, etc.); […] (e.g., Cells, Incubation, Reagent, etc.); VALUE and DESCRIPTION.
1; Cells; 5 uL; white, solid bottom 1536-well Greiner assay plate.
2; Compounds; 23 nL; Kalypsis pin tool (Wako USA) equipped with a 1536-well pin head to transfer to the assay plates.
3; Incubation; 48 hours; 37C incubation.
4; Reagent;5uL; CellTiter Glo (Promega).
5; Detector; 425V; Luminescence; Viewlux PerkinElmer.
NOTES (numbers refer to Sequence numbers above)
1. The cell-based screening methods employed in this study were like those previously published. Briefly, the corresponding myeloma cell lines were screened in 1,536-well plates with 500 cells, 5-uL per well for inhibition of cell viability (assessed by measuring ATP levels with CellTiterGlo).
2. NCATS MIPE 4.0 library of approved and investigational drugs were added using the Kalypsis pin tool. Wells treated with DMSO only for 100% viability and media only wells for 0% viability were used as controls.
3. The assay plates were covered and incubated for 48 hours in a 37C, 5% CO2 incubator with controlled humidity.
4. After 48 hours, CellTilter-GloTM luminescent substrate mix (Promega) reagent was added to the assay plate and plates we incubated for 5 min at room temperature.
5. Signal was measured as median relative luminescence units on a ViewLux (PerkinElmer) multiplate reader.
[1] Heske CM, Davis MI, Baumgart JT, Wilson K, Gormally MV, Chen L, Zhang X, Ceribelli M, Duveau DY, Guha R, Ferrer M, Arnaldez FI, Ji J, Tran HL, Zhang Y, Mendoza A, Helman LJ, Thomas CJ. Matrix Screen Identifies Synergistic Combination of PARP Inhibitors and Nicotinamide Phosphoribosyltransferase (NAMPT) Inhibitors in Ewing Sarcoma. Clin Cancer Res. 2017 Dec 1;23(23):7301-7311. doi: 10.1158/1078-0432.CCR-17-1121. Epub 2017 Sep 12. PMID: 28899971; PMCID: PMC6636827.
Potency means the concentration at half of the fitted maximal effect.

Compound	Potency
O=C1C=CC[C@@H]2[C@H]3CCCN4CCC[C@@H](CN12)[C@@H]34	inconclusive: 33.2 µM [cytotoxic, partial curve, poor fit]
C[C@]12CC[C@@H]3c4ccc(OC(=O)N(CCCl)CCCl)cc4CC[C@H]3[C@@H]1CC[C@@H]2OP(=O)(O)O	inactive
C[C@@H]1C[C@@H]([C@H](O)CC2CC(=O)NC(=O)C2)C(=O)[C@@H](C)C1	active: 1.05 µM
C[C@](O)(COc1ccc(C#N)cc1)C(=O)Nc1ccc(C#N)c(C(F)(F)F)c1	inconclusive: 37.2 µM [cytotoxic, single point]
CC(=O)O[C@@]12CO[C@H]1C[C@H](O)[C@@]1(C)C(=O)[C@H](O)C3=C(C)[C@@H](O)C[C@@](O)([C@@H](OC(=O)c4ccccc4)[C@@H]21)C3(C)C	inconclusive: 10.5 µM [cytotoxic, partial curve]
CCOC(=O)c1c(C(C#N)=CN)c2ccc(Cl)c(Cl)c2n1C	inactive
COc1cc([C@@H]2c3cc4c(cc3[C@@H](O)C3COC(=O)C32)OCO4)cc(OC)c1O (stereo not given in full)	active: 0.0526 µM
C#CC1(O)CCC2C3CCC4=CC(=O)CCC4(C)C3CCC21C (stereo not given)	inactive
CCc1c(C(=O)C(N)=O)c2c(OCC(=O)O)cccc2n1Cc1ccccc1	inactive
Cc1ccccc1-n1c(Cn2ncc3c(N)ncnc32)nc2cccc(C)c2c1=O	inconclusive: 0.118 µM [cytotoxic, full curve]
COc1ccc2c(c1OC)CN1CCc3cc4c(cc3C1C2)OCO4 (stereo not given)	inactive
COc1ccc(C(=O)N2CCCC2=O)cc1	inactive
COC(=O)[C@@H](N)CCCN=C(N)N[N+](=O)[O-]	inactive
c1cc2c(cc1[C@H]1OC[C@H]3[C@H]1CO[C@H]3c1ccc3c(c1)OCO3)OCO2	inconclusive: 26.4 µM [cytotoxic, single point]
O=P1(N(CCCl)CCCl)NCCCO1 (stereo not given)	inactive
C[C@@H]1O[C@@H](O[C@@H]2C=C3CC[C@@H]4[C@@H](CC[C@]5(C)[C@H](c6ccc(=O)oc6)CC[C@@]45O)[C@@]3(C)CC2)[C@H](O)[C@H](O)[C@H]1O	active: 0.0418 µM
O=C(Oc1ccc([N+](=O)[O-])cc1)N1CCC(C(O)(c2ccc3c(c2)OCO3)c2ccc3c(c2)OCO3)CC1	active: 10.5 µM
O=C(Oc1ccc([N+](=O)[O-])cc1)N1CCN(Cc2cccc(Oc3ccccc3)c2)CC1	inconclusive: 37.2 µM [cytotoxic, single point]
C=C[C@@H]1CN2CCC1C[C@H]2[C@H](O)c1ccnc2ccccc12 (stereo not given in full)	active: 13.2 µM
O=c1[nH]c2ccccc2n1CCCN1CCC(n2c(=O)[nH]c3cc(Cl)ccc32)CC1	inconclusive: 0.0033 µM [rising, full curve, poor fit]

Compound	Potency
Cc1sc2c(c1C)C(c1ccc(Cl)cc1)=N[C@@H](CC(=O)OC(C)(C)C)c1nnc(C)n1-2	active: 6.62 µM
O=C(N[C@H]1CN2CCC1CC2)c1ccc(Cl)cc1	inconclusive: 29.6 µM [cytotoxic, single point]
COc1ccc(CC2NCCc3cc(OC)c(OC)cc32)cc1OC (stereo not given)	inactive
COC(=O)C1=CCCN(C)C1	inactive
COc1ccc2c(c1)[C@]13CCCCC1C(C2)N(C)CC3 (stereo not given in full)	inconclusive: 0.003 µM [rising, full curve, poor fit]
CO[C@H]1CCC(O[C@H]2C[C@H]([C@]3(C)CC[C@]4(C[C@H](O)[C@@H](C)[C@@H]([C@@H](C)C=C(C)C(=O)[C@H](C)C[C@H](C)C(=O)O)O4)O3)O[C@]3(O[C@@H]([C@H]4O[C@@](O)(CO)[C@H](C)C[C@H]4C)C[C@H]3C)[C@H]2C)O[C@H]1C (stereo not given in full)	active: 0.662 µM
CCOP(=O)(OCC)C(C)NC(=O)N(CCCl)N=O (stereo not given)	inactive
Cc1[nH]nc2ccc(-c3cncc(OC[C@@H](N)Cc4c[nH]c5ccccc45)c3)cc12	active: 0.935 µM
COc1ccc(C(CN(C)C)C2(O)CCCCC2)cc1 (stereo not given)	inconclusive: 0.0012 µM [cytotoxic, full curve, poor fit]
CC1(N2CCC(n3c([C@@H]4CCCNC4)nc4ccccc43)CC2)CCCCCCC1	inconclusive: 20.9 µM [cytotoxic, partial curve]
CC=C(C)C(=O)N[C@@H](c1ccccc1)[C@@H](O)C(=O)O[C@H]1C[C@@]2(O)[C@@H](OC(=O)c3ccccc3)[C@@H]3[C@]4(OC(C)=O)CO[C@@H]4C[C@H](O)[C@@]3(C)C(=O)[C@H](OC(C)=O)C(=C1C)C2(C)C	inconclusive: 0.0047 µM [cytotoxic, full curve]
O=S(=O)(F)Cc1ccccc1	inactive
C[C@H]([C@H](O)CCC(C)(C)O)[C@H]1CC[C@@]2(O)C3=CC(=O)[C@@H]4C[C@@H](O)[C@@H](O)C[C@]4(C)[C@@H]3CC[C@]12C	inactive
CC[C@@H](C(N)=O)N1CCCC1=O	inactive
C=C1C[C@H]2[C@H]3CCC(=O)[C@@]3(C)CC[C@@H]2[C@@]2(C)C=CC(=O)C=C12	inconclusive: 18.7 µM [cytotoxic, partial curve, poor fit]
O=P1(NCCCl)OCCCN1CCCl (stereo not given)	inconclusive: 29.6 µM [cytotoxic, single point]
NCC1(CC(=O)O)CCCCC1	inactive
C[C@@H]1O[C@@H](O[C@H]2C[C@@H](O)[C@]3(CO)[C@H]4[C@H](O)C[C@]5(C)[C@@H](C6=CC(=O)OC6)CC[C@]5(O)[C@@H]4CC[C@]3(O)C2)[C@H](O)[C@H](O)[C@H]1O	active: 0.0833 µM
CN[C@@H]1Cc2cccc3[nH]c(=O)n(c23)C1	inconclusive: 26.4 µM [cytotoxic, single point]
CN1C(=O)CCS(=O)(=O)C1c1ccc(Cl)cc1 (stereo not given)	active: 16.6 µM

Part of the list above in order of SMILES length, largest number first:
Compound	Potency
C[C@](O)(COc1ccc(C#N)cc1)C(=O)Nc1ccc(C#N)c(C(F)(F)F)c1	inconclusive: 37.2 µM [cytotoxic, single point]
CC1(N2CCC(n3c([C@@H]4CCCNC4)nc4ccccc43)CC2)CCCCCCC1	inconclusive: 20.9 µM [cytotoxic, partial curve]
C#CC1(O)CCC2C3CCC4=CC(=O)CCC4(C)C3CCC21C (stereo not given)	inactive
